Laboratory results: publication PMC13229380
Results are given in words; binding and its absence hold for the method and conditions named. In cells and extracts the contact can be indirect. These calls come from enrichment with a bait or labelling near it, and not all partners need be listed.

B1: PP6R3 (protein, UniProt Q922D4 1-844)
chain: MFWKFDLHSSSHIDTLLEREDVTLKELMDEEDVLQECKAQNRKLIEFLLKAECLEDLVSFIIEEPPQDMDEKIRYKYPNISCELLTSDVSQMNDRLGEDESLLMKLYSFLLNESPLNPLLASFFSKVLSILISRKPEQIVDFLKKKRDFVDLIIKHIGTSAIMDLLLRLLTCIEPPQPRQDVLNWLNEERIIQRLVEIVHPSQEEDRHSNASQSLCEIVRLSRDQMLQVQNSTEPDPLLATLEKQEIIEQLLSNIFHKEKNESAIVSAIQILLTLLETRRPTFEGHIEICPPGMSHSACSVNKSVLEAIRGRLGSFHELLLEPPKKSVMKTTWGILDPPVGNTRLNVIRLISSLLQTNTSSINGDLMELNSIGVILDMFFKYTWNNFLHTQVEICIALILASPFENAENGTITDQDSTGDNLLLKHLFQKCQLIERILEAWDTNEKKQAEGGRRHGYMGHLTRIANCIVHSTDKGPNSALVQQLIKDLPDEVRERWETFCTNSLGETNKRNTVDLAFSDYQMQQMTSNFIDQFGFNDEKFADQDDIGNVSFDRVSDINFTLNTNESGNIALFEACCKERIQQFDDGGSDEEDIWEEKHIAFTPESQRRSSSGSTDSEESTDSEEEDGAKQDLFESSSANTEDKMEVDLNEPPTWSANFDVPMETTHGAPLDSVGSDVWSTEEPMPTKETGWASFSEFTSSLSTKESLRSNSPVEMETSTESVDPLTPGAAALATQPEAPGSMAMEASSDGEEDAESTDKVTETVMNGGMKETLSLTVDAKTETAVFKSEEEKLSTSQDAACKDAEETPEPAEAKCTAPLTPSSSPEQRTDQPSMPSDPSVNGPV
B2: Tnpo3 (Transportin-3) (protein, UniProt Q6P2B1 1-923)
chain: MEGAKPTLQLVYQAVQALYHDPDPSGKERASFWLGELQRSVHAWEISDQLLQIRQDVESCYFAAQTMKMKIQTSFYELPTDSHASLRDSLLTHIQNLKDLSPVIVTQLALAIADLALQMPSWKGCVQTLVEKYSNDVTSLPFLLEILTVLPEEVHSRSLRIGANRRTEIIEDLAFYSSTVVSLLMTCVEKAGTDEKMLMKVFRCLGSWFNLGVLDSNFMANNKLLALLFEVLQQDKTSSNLHEAASDCVCSALYAIENVETNLPLAMQLFQGVLTLETAYHMAVAREDLDKVLNYCRIFTELCETFLEKIVCTPGQGLGDLRTLELLLICAGHPQYEVVEISFNFWYRLGEHLYKTNDEVIHSIFKAYIQRLLHALARHCQLEPDHEGVPEETDDFGEFRMRVSDLVKDLIFLIGSMECFAQLYSTLKEGNPPWEVTEAVLFIMAAIAKSVDPENNPTLVEVLEGVVHLPETVHTAVRYTSIELVGEMSEVVDRNPQFLDPVLGYLMKGLCEKPLASAAAKAIHNICSVCRDHMAQHFNGLLEIAHSLDSFMLSPEAAVGLLKGTALVLARLPLDKITECLSELCSVQVMALKKLLSQEPSNGISSDPTVFLDRLAVIFRHTNPIVENGQTHPCQKVIQEIWPVLSETLNKHRADNRIVERCCRCLRFAVRCVGKGSAALLQPLVTQMVNVYHVHQHSCFLYLGSILVDEYGMEEGCRQGLLDMLQALCIPTFQLLEQQNGLQNHPDTVDDLFRLATRFIQRSPVTLLRSQVVIPILQWAIASTTLDHRDANSSVMRFLRDLIHTGVANDHEEDFELRKELIGQVMSQLGQQLVSQLLHTCCFCLPPYTLPDVAEVLWEIMQVDRPTFCRWLENSLKGLPKETTVGAVTVTHKQLTDFHKQVTSAEECKQVCWALRDFTRLFR
B3: ANKRD 28 (protein, UniProt Q505D1 1-1053)
chain: MAFLKLRDQPSLVQAIFNGDPDEVRALIFKKEDVNFQDNEKRTPLHAAAYLGDAEIIELLILSGARVNAKDSKWLTPLHRAVASCSEEAVQILLKHSADVNARDKNWQTPLHIAAANKAVKCAESLVPLLSNVNVSDRAGRTALHHAAFSGHGEMVKLLLSRGANINAFDKKDRRAIHWAAYMGHIEVVKLLVSHGAEVTCKDKKSYTPLHAAASSGMISVVKYLLDLGVDMNEPNAYGNTPLHVACYNGQDVVVNELIDCGANVNQKNEKGFTPLHFAAASTHGALCLELLVGNGADVNMKSKDGKTPLHMTALHGRFSRSQTIIQSGAVIDCEDKNGNTPLHIAARYGHELLINTLITSGADTAKRGIHGMFPLHLAALSGFSDCCRKLLSSGFDIDTPDDFGRTCLHAAAAGGNLECLNLLLNTGADFNKKDKFGRSPLHYAAANCNYQCLFALVGSGASVNDLDERGCTPLHYAATSDTDGKCLEYLLRNDANPGIRDKQGYNAVHYSAAYGHRLCLQLIASETPLDVLMETSGTDMLSDSDNRATISPLHLAAYHGHHQALEVLVQSLLDLDVRNSSGRTPLDLAAFKGHVECVDVLINQGASILVKDYVLKRTPIHAAATNGHSECLRLLIGNAEPQNAVDIQDGNGQTPLMLSVLNGHTDCVYSLLNKGANVDAKDKWGRTALHRGAVTGHEECVDALLQHGAKCLLRDSRGRTPIHLSAACGHIGVLGALLQSATSVDANPAVVDNHGYTALHWACYNGHETCVELLLEQDVFQKIDGNAFSPLHCAVINDNEGAAEMLIDSLGASIVNATDSKGRTPLHAAAFTDHVECLQLLLSQNAQVNSADSTGKTPLMMAAENGQTNTVEMLVSSASADLTLQDKSKNTALHLACGKGHETSALLILEKITDRNLINATNAALQTPLHVAARNGLTMVVQELLGKGASVLAVDENGYTPALACAPNKDVADCLALILATMMPVSSSSPLTSLTFNAINRYTNTSKTVSFEALPIMRNEASSYCSFNNIGGEQEYLYTDVDELNDSDSETY
B4: protein phosphatase-6 catalytic domain (PP6C) (enzyme, UniProt Q9CQR6 1-305)
chain: MAPLDLDKYVEIARQCKYLPENDLKRLCDYVCDLLLEESNVQPVSTPVTVCGDIHGQFYDLCELFRTGGQVPDTNYIFMGDFVDRGYYSLETFTYLLALKAKWPDRITLLRGNHESRQITQVYGFYDECQTKYGNANAWRYCTKVFDMLTVAALIDEQILCVHGGLSPDIKTLDQIRTIERNQEIPHKGAFCDLVWSDPEDVDTWAISPRGAGWLFGAKVTNEFVHINNLKLICRAHQLVHEGYKFMFDEKLVTVWSAPNYCYRCGNIASIMVFKDVNTREPKLFRAVPDSERVIPPRTTTPYFL
B5: ANKRD 52 (protein, UniProt Q8BTI7 1-1076)
chain: MGILSITDQPPLVQAIFSRDVEEVRSLLSQKENINVLDQERRTPLHAAAYVGDVPILQLLLMSGANVNAKDTLWLTPLHRAAASRNEKVLGLLLAHSADVNARDKLWQTPLHVAAANRATKCAEALAPLLSSLNVADRSGRSALHHAVHSGHLETVNLLLNKGASLNVCDKKERQPLHWAAFLGHLEVLKLLVARGADLSCKDRKGYGLLHTAAASGQIEVVKHLLRMGAEIDEPNAFGNTALHIACYLGQDAVAIELVNAGANVNQPNDKGFTPLHVAAVSTNGALCLELLVNNGADVNYQSKEGKSPLHMAAIHGRFTRSQILIQNGSEIDCADKFGNTPLHVAARYGHELLISTLMTNGADTARRGIHDMFPLHLAVLFGFSDCCRKLLSSGQLYSIVSSLSNEHVLSAGFDINTPDSLGRTCLHAAASGGNVECLNLLLSSGADLRRRDKFGRTPLHYAAANGSYQCAVTLVTAGAGVNEADCKGCSPLHYAAASDTYRRAEPHTASSHDAEEDELLKESRRKEAFFCLEFLLDNGADPSLRDRQGYTAVHYAAAYGNRQNLELLLEMSFNCLEDVESTVPVSPLHLAAYNGHCEALKTLAETLVNLDVRDHKGRTALFLATERGSTECVEVLTAHGASALIKERKRKWTPLHAAAASGHTDSLHLLIDSGERADITDVMDAYGQTPLMLAIMNGHVDCVHLLLEKGSTADAADLRGRTALHRGAVTGCEDCLAALLDHDAFVLCRDFKGRTPIHLASACGHTAVLRTLLQAALSTDPLDAGVDYSGYSPMHWASYTGHEDCLELLLEHSPFSYLEGNPFTPLHCAVINNQDSTTEMLLGALGAKIVNSRDAKGRTPLHAAAFADNVSGLRMLLQHQAEVNATDHTGRTALMTAAESGQTAAVEFLLYRGKADLTVLDENKNTALHLACSKGHEKCALMILAETQDLGLINATNSALQMPLHIAARNGLASVVQALLSRGATVLAVDEEGHTPALACAPNKDVADCLALILSTMKPFPPKDAVSPFSFSLLKNCGIAAAKTVGGCGALPHGASCPYSQERHGAIGLDGCYSE

molecular target: m54.5p, C-terminally V5-tagged (m54.5p-V5) (murine cytomegalovirus (MCMV)); test: affinity purification with mass spectrometry; V5 Co-IP LC-MS: V5-Trap magnetic agarose beads on lysates of m54.5p-V5-3T3 cells, with m54.5p-FLAG-3T3 cells as negative control; uninfected or MCMV-infected (24 hpi); lysis in 50 mM Tris-HCl pH 7.4, 300 mM NaCl, 1% Triton X-100, 1 mM EDTA, Benzonase; overnight at 4 °C; three biological replicates per condition

Row | Binder | binding
1 | B1 | binds
2 | B2 | binds
3 | B3 | binds
4 | B4 | binds
5 | B5 | binds
